Results taken from publication doi:10.1101/2022.05.13.491168.
For at least one entry, the source does not settle the construct or the ends of the probe. Weaker means in comparison with the reference protein, sequence or condition of that experiment. At least one verdict was read from the data and is not stated in words by the source.

Target: CvkR (Alr3614) (Anabaena (Nostoc) sp. PCC 7120) (UniProt A0ACD6B984)
Assay: EMSA
Details: residues 19-168

Sequence	binding result
TAAAACACATTAGTGCTTTGTATAACATTATGTGTTTTG (double strand) [P39]	binds more weakly
GTATAACATTATGTGTTTTG (double strand) [P20]	binds more weakly
TGCTTTGTATAACATTATGTGTTTTG (double strand) [P26]	binds more weakly
